In US4330532A (Richter Gedeon Vegyeszeti Gyar Rt., priority 1980, dated 1982):
HELM strings list residues between dots; [ac] is acetyl, [am] amide, other brackets name non-standard units.

Test: general procedure: solution-phase peptide synthesis; pentafluorophenyl active esters (e.g. Z-Sar-OPfp)
Settings: late stage modification step

Substance	step yield [%]
(Sar^1,HMV^8)-Ang-II Dnp-free protected octapeptide	80
(Sar^1,Lac-OEt^8)-Ang-II Dnp-free protected octapeptide	89
(Sar^1,Lac^8)-Ang-II Dnp-free protected octapeptide	89
PEPTIDE1{[Sar].R.V.Y.I.H.P.[HMV]}$$$$V2.0	67
PEPTIDE1{[Sar].R.V.Y.I.H.P.[Lac].[OEt]}$$$$V2.0	96
PEPTIDE1{[Sar].R.V.Y.I.H.P.[Lac]}$$$$V2.0	84

Same assay, conditions: whole synthesis, calculated for His

Substance	crude yield [%]	isolated yield [%]
Z-Sar-Arg(NO2)-Val-Tyr(Bzl)-Ile-His(Dnp)-Pro-HMV-OBzl	30	
Z-Sar-Arg(NO2)-Val-Tyr(Bzl)-Ile-His(Dnp)-Pro-Lac-OBzl	29.6	
Z-Sar-Arg(NO2)-Val-Tyr(Bzl)-Ile-His(Dnp)-Pro-Lac-OEt		17.5
